In PubChem BioAssay AID212 (DTP/NCI, 2004):
The list does not hold the whole screen: it gathers tests that were run many times, whatever their T/C, doses with no T/C, and many T/C values between a quarter and a half above the control. Further doses and runs are listed elsewhere. T/C: endpoint of the treated group in % of that of the vehicle group. Schedule codes are those of the source, read here as Q, the interval in days (D) or hours (H), X, the number of doses. Some doses were run more than once; their values stand side by side, smallest first. Some T/C values are followed by the survivors on the day toxicity was checked, most often the fifth; without a count, all were alive then. Some entries give survivors of the animals treated and no T/C: the source files T/C as zero there, which appears to mark a toxic dose or a test without result, not a measured value. Counts of survivors are from the toxicity check (mostly the fifth day) where no day follows; animals may have died later. For survival time, the PubChem record calls one and a half times the control and up active, and a quarter to a half above the control has no call in these data; cut-offs in other NCI protocols can differ.

Test system: BDF1 mice, colon carcinoma 38 sc, T/C %
Assay: NCI In Vivo Anticancer Drug Screen. Data for tumor model Colon Carcinoma 38 (subcutaneous) in B6D2F1 (BDF1) mice
Summary of the method: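 Transplantable tumor in mice; compound-treated vs vehicle-dosed controls. Measured survival or tumor size; value = T ÷ C.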

[1] = T/C endpoint: median tumor weight (est.), dose: 200.0 mg/kg/injection, schedule: Q07DX002 (ip), vehicle: Klucel (hydroxypropylcellulose) (HPC), higher T/C = larger tumour
[2] = T/C endpoint: median tumor weight (est.), dose: 25.0 mg/kg/injection, schedule: Q07DX002 (ip), vehicle: Klucel (hydroxypropylcellulose) (HPC), evaluated on day 20, higher T/C = larger tumour
[3] = T/C endpoint: median tumor weight (est.), dose: 200.0 mg/kg/injection, schedule: Q07DX002 (ip), vehicle: saline with Tween-80, higher T/C = larger tumour
[4] = T/C endpoint: median tumor weight (est.), dose: 3200.0 mg/kg/injection, schedule: Q07DX002 (ip), vehicle: saline, higher T/C = larger tumour

Nc1nc(N)c2cc(S(=O)(=O)c3ccccc3)ccc2n1
survivor count (T/C endpoint: median survival time, dose: 57.0 mg/kg/injection, schedule: Q06HX012 (oral), vehicle: saline with Tween-80, higher T/C = longer survival): 3 of 10 on day 70
survivor count (T/C endpoint: median survival time, dose: 86.0 mg/kg/injection, schedule: Q06HX012 (oral), vehicle: saline with Tween-80, higher T/C = longer survival): 0 of 10 on day 70
survivor count (T/C endpoint: median survival time, dose: 130.0 mg/kg/injection, schedule: Q06HX012 (oral), vehicle: saline with Tween-80, higher T/C = longer survival): 0 of 10 on day 70
survivor count (T/C endpoint: median survival time, dose: 130.0 mg/kg/injection, schedule: Q06HX014 (ip), vehicle: saline with Tween-80, higher T/C = longer survival): 2 of 10 on day 70
survivor count (T/C endpoint: median survival time, dose: 195.0 mg/kg/injection, schedule: Q06HX012 (oral), vehicle: saline with Tween-80, higher T/C = longer survival): 0 of 10 on day 70
survivor count (T/C endpoint: median survival time, dose: 195.0 mg/kg/injection, schedule: Q06HX014 (ip), vehicle: saline with Tween-80, higher T/C = longer survival): 0 of 10 on day 70
survivor count (T/C endpoint: median survival time, dose: 292.0 mg/kg/injection, schedule: Q06HX012 (oral), vehicle: saline with Tween-80, higher T/C = longer survival): 0 of 5 on day 70
survivor count (T/C endpoint: median survival time, dose: 292.0 mg/kg/injection, schedule: Q06HX014 (ip), vehicle: saline with Tween-80, higher T/C = longer survival): 0 of 5 on day 70
T/C (T/C endpoint: median survival time, dose: 780.0 mg/kg/injection, schedule: Q07DX002 (ip), vehicle: saline with Tween-80, higher T/C = longer survival): 146 % of control [6 of 9 alive on day 70]
survivor count (T/C endpoint: median survival time, dose: 1170.0 mg/kg/injection, schedule: Q07DX002 (ip), vehicle: saline with Tween-80, higher T/C = longer survival): 2 of 10 on day 70
survivor count (T/C endpoint: median survival time, dose: 1750.0 mg/kg/injection, schedule: Q07DX002 (ip), vehicle: saline with Tween-80, higher T/C = longer survival): 0 of 10 on day 70
survivor count (T/C endpoint: median survival time, dose: 2600.0 mg/kg/injection, schedule: Q07DX002 (ip), vehicle: saline with Tween-80, higher T/C = longer survival): 0 of 5 on day 70

c1ccc([P+](c2ccccc2)(c2ccccc2)c2ccccc2)cc1
survivor count (T/C endpoint: median tumor weight (est.), dose: 12.0 mg/kg/injection, schedule: Q07DX002 (ip), vehicle: saline, higher T/C = larger tumour): 3 of 10 on day 20
survivor count (T/C endpoint: median tumor weight (est.), dose: 12.0 mg/kg/injection, schedule: Q07DX003 (ip), vehicle: saline, higher T/C = larger tumour): 2 of 10 on day 20
survivor count (T/C endpoint: median tumor weight (est.), dose: 24.0 mg/kg/injection, schedule: Q07DX002 (ip), vehicle: saline, higher T/C = larger tumour): 0 of 10 on day 20
survivor count (T/C endpoint: median tumor weight (est.), dose: 24.0 mg/kg/injection, schedule: Q07DX003 (ip), vehicle: saline, higher T/C = larger tumour): 0 of 10 on day 20

N/C(=N\OC(=O)Nc1ccc(CSc2ccc(Cl)cc2)o1)c1ccccn1
survivor count [1]: 6 of 10 on day 20
survivor count (T/C endpoint: median tumor weight (est.), dose: 400.0 mg/kg/injection, schedule: Q07DX002 (ip), vehicle: Klucel (hydroxypropylcellulose) (HPC), higher T/C = larger tumour): 0 of 10 on day 20

CN=C(N)N/N=C(\C)c1ccc2c(c1)Cc1cc(/C(C)=N/NC(N)=NC)ccc1-2
T/C (T/C endpoint: median tumor weight (est.), dose: 1.5 mg/kg/injection, schedule: Q07DX002 (ip), vehicle: saline with Tween-80, evaluated on day 20, higher T/C = larger tumour): 129 % of control [9 of 10 alive on day 20]
survivor count (T/C endpoint: median tumor weight (est.), dose: 6.0 mg/kg/injection, schedule: Q07DX002 (ip), vehicle: saline with Tween-80, higher T/C = larger tumour): 5 of 10 on day 20
survivor count (T/C endpoint: median tumor weight (est.), dose: 12.0 mg/kg/injection, schedule: Q07DX002 (ip), vehicle: saline with Tween-80, higher T/C = larger tumour): 0 of 10 on day 20
survivor count (T/C endpoint: median tumor weight (est.), dose: 24.0 mg/kg/injection, schedule: Q07DX002 (ip), vehicle: saline with Tween-80, higher T/C = larger tumour): 0 of 10 on day 20

CCCCCCCCCCCCCCCCCCCCCC(=O)Nc1ccn(C2OC(CO)C(O)C2O)c(=O)n1 (stereo not given)
T/C (T/C endpoint: median tumor weight (est.), dose: 12.5 mg/kg/injection, schedule: Q07DX002 (ip), vehicle: saline with Tween-80, evaluated on day 20, higher T/C = larger tumour): 125 % of control [9 of 10 alive on day 20]
survivor count (T/C endpoint: median tumor weight (est.), dose: 200.0 mg/kg/injection, schedule: Q07DX002 (ip), vehicle: saline, higher T/C = larger tumour): 0 of 10 on day 20
survivor count (T/C endpoint: median tumor weight (est.), dose: 400.0 mg/kg/injection, schedule: Q07DX002 (ip), vehicle: saline, higher T/C = larger tumour): 0 of 10 on day 20
survivor count (T/C endpoint: median tumor weight (est.), dose: 800.0 mg/kg/injection, schedule: Q07DX002 (ip), vehicle: saline, higher T/C = larger tumour): 0 of 10 on day 20

COc1c(CNC(=O)CCl)cc2[nH]c(C)cc2c1CNC(=O)CCl
T/C [2]: 135 % of control

CN1CCN(Cc2nc3cccc4c3c([n+]2[O-])-c2ccccc2-4)CC1
survivor count (T/C endpoint: median tumor weight (est.), dose: 400.0 mg/kg/injection, schedule: Q07DX002 (ip), vehicle: saline with Tween-80, higher T/C = larger tumour): 4 of 10 on day 20

CN1CCc2c(c3ccccc3c3ccccc23)C1
T/C [2]: 131 % of control
survivor count [1]: 6 of 10 on day 20

O=S1(=O)C=C(c2ccccc2)C(c2ccccc2)=C1
survivor count (T/C endpoint: median tumor weight (est.), dose: 100.0 mg/kg/injection, schedule: Q07DX002 (ip), vehicle: saline with Tween-80, higher T/C = larger tumour): 5 of 10 on day 20
survivor count [3]: 0 of 10 on day 20

CC(/C=C/c1ccccc1)=Nc1ccccc1
T/C (T/C endpoint: median tumor weight (est.), dose: 200.0 mg/kg/injection, schedule: Q07DX002 (ip), vehicle: saline with Tween-80, evaluated on day 20, higher T/C = larger tumour): 146 % of control
survivor count (T/C endpoint: median tumor weight (est.), dose: 800.0 mg/kg/injection, schedule: Q07DX002 (ip), vehicle: saline with Tween-80, higher T/C = larger tumour): 4 of 10 on day 20

OCC1(CO)COC2(CCCCC2)N1
T/C (T/C endpoint: median tumor weight (est.), dose: 200.0 mg/kg/injection, schedule: Q07DX002 (ip), vehicle: saline, evaluated on day 20, higher T/C = larger tumour): 132 and 147 % of control

Cc1cc(NCCCCCCNc2cc(C)nc3cc(N(C)C)ccc23)c2ccc(N(C)C)cc2n1
survivor count (T/C endpoint: median tumor weight (est.), dose: 200.0 mg/kg/injection, schedule: Q07DX002 (ip), vehicle: distilled water + Tween-80 + alcohol, higher T/C = larger tumour): 0 of 10 on day 20

[I][Hg][CH2]C1COC([CH2][Hg][I])CO1 (stereo not given)
T/C (T/C endpoint: median tumor weight (est.), dose: 12.5 mg/kg/injection, schedule: Q07DX002 (ip), vehicle: suspension in saline, evaluated on day 20, higher T/C = larger tumour): 135 % of control
T/C (T/C endpoint: median tumor weight (est.), dose: 25.0 mg/kg/injection, schedule: Q07DX002 (ip), vehicle: suspension in saline, evaluated on day 20, higher T/C = larger tumour): 148 % of control
T/C (T/C endpoint: median tumor weight (est.), dose: 100.0 mg/kg/injection, schedule: Q07DX002 (ip), vehicle: suspension in saline, evaluated on day 20, higher T/C = larger tumour): 148 % of control [9 of 10 alive on day 20]
survivor count (T/C endpoint: median tumor weight (est.), dose: 200.0 mg/kg/injection, schedule: Q07DX002 (ip), vehicle: suspension in saline, higher T/C = larger tumour): 5 of 10 on day 20

CCC1(O)CC2CN(CCc3c([nH]c4ccccc34)C(C(=O)OC)(c3cc4c(cc3OC)N(C)C3C(O)(C(N)=O)C(O)C5(CC)C=CCN6CCC43C65)C2)C1 (stereo not given) (tested in a mixture with another compound)
survivor count (T/C endpoint: median tumor weight (est.), dose: 8.0 mg/kg/injection, schedule: Q07DX002 (ip), vehicle: water, higher T/C = larger tumour): 0 of 10 on day 20

C[C@@H]1C[C@H]2[C@@H]3CCC4=CC(=O)C=C[C@]4(C)[C@@]3(F)[C@@H](O)C[C@]2(C)[C@@]1(O)C(=O)CO
T/C (T/C endpoint: median tumor weight (est.), dose: 6.25 mg/kg/injection, schedule: Q07DX002 (ip), vehicle: Klucel (hydroxypropylcellulose) (HPC), evaluated on day 20, higher T/C = larger tumour): 133 % of control

CCN(CC)CC(C)(C)C(=O)/C=C/c1ccccc1
survivor count (T/C endpoint: median tumor weight (est.), dose: 250.0 mg/kg/injection, schedule: Q07DX002 (ip), vehicle: saline, higher T/C = larger tumour): 3 of 10 on day 20
survivor count (T/C endpoint: median tumor weight (est.), dose: 500.0 mg/kg/injection, schedule: Q07DX002 (ip), vehicle: saline, higher T/C = larger tumour): 0 of 10 on day 20
survivor count (T/C endpoint: median tumor weight (est.), dose: 1000.0 mg/kg/injection, schedule: Q07DX002 (ip), vehicle: saline, higher T/C = larger tumour): 0 of 10 on day 20

N#Cc1c(N)[nH]c2ccc(Sc3ccccc3)cc12
survivor count [3]: 6 of 10 on day 20

C/C=C(\C)c1cc(=O)c2c(C)cc3c(c2o1)C(=O)c1c(O)c(C2CC(C)(N(C)C)C(OC(C)=O)C(C)O2)cc(C2CC(N(C)C)C(O)C(C)O2)c1C3=O (stereo not given)
survivor count (T/C endpoint: median tumor weight (est.), dose: 5.0 mg/kg/injection, schedule: Q07DX002 (ip), vehicle: saline, higher T/C = larger tumour): 4 of 10 on day 20

O=C1C=CC(n2cc(F)c(=O)[nH]c2=O)O1 (stereo not given)
T/C (T/C endpoint: median tumor weight (est.), dose: 25.0 mg/kg/injection, schedule: Q07DX002 (ip), vehicle: saline, evaluated on day 20, higher T/C = larger tumour): 135 % of control [9 of 10 alive on day 20]
T/C (T/C endpoint: median tumor weight (est.), dose: 50.0 mg/kg/injection, schedule: Q07DX002 (ip), vehicle: saline, evaluated on day 20, higher T/C = larger tumour): 139 % of control [8 of 10 alive on day 20]

CNC=O
survivor count [4]: 0 of 10 on day 20
survivor count (T/C endpoint: median tumor weight (est.), dose: 6400.0 mg/kg/injection, schedule: Q07DX002 (ip), vehicle: saline, higher T/C = larger tumour): 0 of 10 on day 20

O=C([CH-]C(=O)C(F)(F)F)c1ccccc1.O=C([CH-]C(=O)C(F)(F)F)c1ccccc1.O=C([CH-]C(=O)C(F)(F)F)c1ccccc1.O=C([CH-]C(=O)C(F)(F)F)c1ccccc1.[Eu+3].c1ccncc1
T/C [2]: 138 % of control
T/C (T/C endpoint: median tumor weight (est.), dose: 50.0 mg/kg/injection, schedule: Q07DX002 (ip), vehicle: Klucel (hydroxypropylcellulose) (HPC), evaluated on day 20, higher T/C = larger tumour): 130 % of control

OCCCN1CCCCC1CO (stereo not given)
survivor count (T/C endpoint: median tumor weight (est.), dose: 1600.0 mg/kg/injection, schedule: Q07DX002 (ip), vehicle: saline, higher T/C = larger tumour): 0 of 10 on day 20
survivor count [4]: 0 of 10 on day 20
